From PMC12756398 come the findings set out here.

No constants are given. Whether binding was seen depends on the method and setting. Binding seen in cells or lysates may run through a third protein. Binding calls can cover weak binding; strength is not graded here. For some assays here: Tags and fused reporters may be left off the sequences shown.

For test [1], the target named is T1, GST-fused RA domain of ARAP1 (aa 1179-1262) (mouse) (UniProt Q4LDD4).
T1 sequence: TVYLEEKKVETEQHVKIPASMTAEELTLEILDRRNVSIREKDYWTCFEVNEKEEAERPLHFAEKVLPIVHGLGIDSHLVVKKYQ
Put plainly: pull-down; GST, GST-RA or GST-RA-PH held on glutathione Sepharose 4B beads; lysates of 293T cells transfected with SNAP-tagged GTPases (1% Triton X-100, 0.1 M Tris-HCl pH 7.5, 0.1 M NaCl, 10 mM MgCl2); 4 °C, 1 h; immunoblotting; only the target purified.

The target of test [2] is T2, GST-fused RA-PH domains of ARAP1 (aa 1179-1452) (mouse) (UniProt Q4LDD4).
T2 sequence: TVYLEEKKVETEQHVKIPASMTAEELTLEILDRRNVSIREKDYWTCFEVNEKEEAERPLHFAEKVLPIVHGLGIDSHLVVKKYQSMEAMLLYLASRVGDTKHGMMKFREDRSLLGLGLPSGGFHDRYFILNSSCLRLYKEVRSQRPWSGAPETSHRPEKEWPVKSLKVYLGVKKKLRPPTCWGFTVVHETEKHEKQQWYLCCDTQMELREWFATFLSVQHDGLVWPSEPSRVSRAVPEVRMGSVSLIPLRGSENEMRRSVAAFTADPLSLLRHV
The test is described as above.

The target in test [3] is T3, Venus-ARAP1 (full-length ArfGAP with RhoGAP domain, ankyrin repeat and PH domain 1, mouse isoform 5) (mouse) (UniProt Q4LDD4).
T3 sequence: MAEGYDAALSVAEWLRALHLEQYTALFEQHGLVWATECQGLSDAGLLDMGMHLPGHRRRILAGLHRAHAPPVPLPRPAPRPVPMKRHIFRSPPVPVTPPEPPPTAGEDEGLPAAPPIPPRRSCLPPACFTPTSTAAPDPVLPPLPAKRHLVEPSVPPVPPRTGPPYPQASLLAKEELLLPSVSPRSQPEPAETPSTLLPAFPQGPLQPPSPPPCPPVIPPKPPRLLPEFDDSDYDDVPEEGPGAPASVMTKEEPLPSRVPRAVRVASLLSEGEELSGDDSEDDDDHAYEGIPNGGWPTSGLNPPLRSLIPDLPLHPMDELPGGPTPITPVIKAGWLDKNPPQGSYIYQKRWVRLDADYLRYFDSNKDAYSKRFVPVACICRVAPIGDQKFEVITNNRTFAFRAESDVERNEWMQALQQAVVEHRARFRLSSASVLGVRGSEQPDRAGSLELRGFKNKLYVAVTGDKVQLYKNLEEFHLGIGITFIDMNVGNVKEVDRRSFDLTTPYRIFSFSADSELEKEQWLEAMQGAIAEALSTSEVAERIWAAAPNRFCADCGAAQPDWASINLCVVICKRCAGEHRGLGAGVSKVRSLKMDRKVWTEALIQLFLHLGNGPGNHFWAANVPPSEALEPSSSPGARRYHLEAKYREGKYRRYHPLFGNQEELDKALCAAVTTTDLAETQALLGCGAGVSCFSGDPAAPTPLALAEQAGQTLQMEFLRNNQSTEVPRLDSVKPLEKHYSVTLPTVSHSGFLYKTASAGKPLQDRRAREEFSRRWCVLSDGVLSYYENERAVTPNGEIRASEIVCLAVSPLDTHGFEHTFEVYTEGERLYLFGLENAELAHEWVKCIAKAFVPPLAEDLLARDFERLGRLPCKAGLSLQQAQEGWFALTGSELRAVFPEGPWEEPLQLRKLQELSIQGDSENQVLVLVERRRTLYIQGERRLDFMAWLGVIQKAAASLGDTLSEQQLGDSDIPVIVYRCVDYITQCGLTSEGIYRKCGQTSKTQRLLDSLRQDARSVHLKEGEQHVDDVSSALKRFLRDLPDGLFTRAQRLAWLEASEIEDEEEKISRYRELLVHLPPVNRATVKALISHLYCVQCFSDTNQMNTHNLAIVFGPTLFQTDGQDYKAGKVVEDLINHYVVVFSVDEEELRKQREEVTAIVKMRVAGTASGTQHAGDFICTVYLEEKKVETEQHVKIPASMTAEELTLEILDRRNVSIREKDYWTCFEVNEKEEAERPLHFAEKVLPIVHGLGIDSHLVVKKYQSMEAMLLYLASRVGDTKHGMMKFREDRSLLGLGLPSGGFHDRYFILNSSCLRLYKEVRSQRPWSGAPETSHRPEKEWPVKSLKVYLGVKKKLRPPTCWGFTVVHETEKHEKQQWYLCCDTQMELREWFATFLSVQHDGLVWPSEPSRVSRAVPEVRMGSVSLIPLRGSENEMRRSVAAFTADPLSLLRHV
Put plainly: co-IP; 293T cells transfected with Venus-ARAP1 (or Venus alone) and SNAP-Rap1; lysis in 1% Triton X, 0.1 M Tris-HCl pH 7.5, 0.1 M NaCl, 10 mM MgCl2; anti-GFP antibody 3 h at 4 °C, Protein-G sepharose 1 h; immunoblotting. For orientation: In western blotting, separated proteins are transferred to a membrane and probed.

Take “SNAP-tagged Rap1N17 (inactive form of Rap1)”: the binding entry in test [1] and in test [2] was “binds” in each case.

In the case of “SNAP-tagged Rap1V12 (active form of Rap1)”, the binding entry in test [1] and in test [2] was “binds” in each case.

Regarding SNAP-tagged wild-type Rap1, the binding entry in test [3] was “binds”.
